Data: PMC4974783
These are yes or no findings as the source states them, for the method shown. Binding seen in cells or lysates may run through a third protein. For some assays here: Binding calls can cover weak binding; strength is not graded here.

Assays:
[1] = molecular target: FLAG-tagged ΔCDCP1, deletion mutant that mimics the cleaved form of CDCP1; test: co-IP; anti-FLAG agarose from MDA-MB-231 or T47D cells transduced with adenoviral vectors, immunoblot
[2] = molecular target: FLAG-tagged ΔCDCP1, deletion mutant that mimics the cleaved form of CDCP1; test: co-IP; anti-FLAG agarose from MDA-MB-231-derived E-cadherin-GST lines with or without γ-catenin coexpression, transduced with ΔCDCP1-FLAG adenovirus; immunoblot
[3] = molecular target: FLAG-tagged ΔCDCP1, deletion mutant that mimics the cleaved form of CDCP1; test: co-IP; anti-FLAG agarose from AsPC1 or PANC1 pancreatic cancer cells transduced with adenoviral vectors, immunoblot; AsPC1 also extracted with 1 % Triton X100, IGE-PAL, CHAPS, sodium deoxycholate, Brij 35 or sodium dodecylsulfate
[4] = molecular target: FLAG-tagged ΔCDCP1, deletion mutant that mimics the cleaved form of CDCP1; test: co-IP + pull-down; sequential affinity purification, anti-FLAG agarose followed by glutathione-agarose, from MDA-MB-231 or T47D cells stably expressing E-cad-GST and transduced with ΔCDCP1-FLAG adenovirus; immunoblot

B1: γ-catenin, endogenous (protein, UniProt P14923 1-745)
chain: MEVMNLMEQPIKVTEWQQTYTYDSGIHSGANTCVPSVSSKGIMEEDEACGRQYTLKKTTTYTQGVPPSQGDLEYQMSTTARAKRVREAMCPGVSGEDSSLLLATQVEGQATNLQRLAEPSQLLKSAIVHLINYQDDAELATRALPELTKLLNDEDPVVVTKAAMIVNQLSKKEASRRALMGSPQLVAAVVRTMQNTSDLDTARCTTSILHNLSHHREGLLAIFKSGGIPALVRMLSSPVESVLFYAITTLHNLLLYQEGAKMAVRLADGLQKMVPLLNKNNPKFLAITTDCLQLLAYGNQESKLIILANGGPQALVQIMRNYSYEKLLWTTSRVLKVLSVCPSNKPAIVEAGGMQALGKHLTSNSPRLVQNCLWTLRNLSDVATKQEGLESVLKILVNQLSVDDVNVLTCATGTLSNLTCNNSKNKTLVTQNSGVEALIHAILRAGDKDDITEPAVCALRHLTSRHPEAEMAQNSVRLNYGIPAIVKLLNQPNQWPLVKATIGLIRNLALCPANHAPLQEAAVIPRLVQLLVKAHQDAQRHVAAGTQQPYTDGVRMEEIVEGCTGALHILARDPMNRMEIFRLNTIPLFVQLLYSSVENIQRVAAGVLCELAQDKEAADAIDAEGASAPLMELLHSRNEGTATYAAAVLFRISEDKNPDYRKRVSVELTNSLFKHDPAAWEAAQSMIPINEPYGDDMDATYRPMYSSDVPLDPLEMHMDMDGDYPIDTYSDGLRPPYPTADHMLA
B1 was tested, and the binding [1] was “binds”, the binding [2] was “binds” and the binding [3] was “binds”.

B2: γ-catenin, overexpressed (protein, UniProt P14923 1-745)
chain: MEVMNLMEQPIKVTEWQQTYTYDSGIHSGANTCVPSVSSKGIMEEDEACGRQYTLKKTTTYTQGVPPSQGDLEYQMSTTARAKRVREAMCPGVSGEDSSLLLATQVEGQATNLQRLAEPSQLLKSAIVHLINYQDDAELATRALPELTKLLNDEDPVVVTKAAMIVNQLSKKEASRRALMGSPQLVAAVVRTMQNTSDLDTARCTTSILHNLSHHREGLLAIFKSGGIPALVRMLSSPVESVLFYAITTLHNLLLYQEGAKMAVRLADGLQKMVPLLNKNNPKFLAITTDCLQLLAYGNQESKLIILANGGPQALVQIMRNYSYEKLLWTTSRVLKVLSVCPSNKPAIVEAGGMQALGKHLTSNSPRLVQNCLWTLRNLSDVATKQEGLESVLKILVNQLSVDDVNVLTCATGTLSNLTCNNSKNKTLVTQNSGVEALIHAILRAGDKDDITEPAVCALRHLTSRHPEAEMAQNSVRLNYGIPAIVKLLNQPNQWPLVKATIGLIRNLALCPANHAPLQEAAVIPRLVQLLVKAHQDAQRHVAAGTQQPYTDGVRMEEIVEGCTGALHILARDPMNRMEIFRLNTIPLFVQLLYSSVENIQRVAAGVLCELAQDKEAADAIDAEGASAPLMELLHSRNEGTATYAAAVLFRISEDKNPDYRKRVSVELTNSLFKHDPAAWEAAQSMIPINEPYGDDMDATYRPMYSSDVPLDPLEMHMDMDGDYPIDTYSDGLRPPYPTADHMLA
With B2 the binding [2] was “binds”.

B3: p120 catenin (protein, UniProt O60716 1-968)
chain: MDDSEVESTASILASVKEQEAQFEKLTRALEEERRHVSAQLERVRVSPQDANPLMANGTLTRRHQNGRFVGDADLERQKFSDLKLNGPQDHSHLLYSTIPRMQEPGQIVETYTEEDPEGAMSVVSVETSDDGTTRRTETTVKKVVKTVTTRTVQPVAMGPDGLPVDASSVSNNYIQTLGRDFRKNGNGGPGPYVGQAGTATLPRNFHYPPDGYSRHYEDGYPGGSDNYGSLSRVTRIEERYRPSMEGYRAPSRQDVYGPQPQVRVGGSSVDLHRFHPEPYGLEDDQRSMGYDDLDYGMMSDYGTARRTGTPSDPRRRLRSYEDMIGEEVPSDQYYWAPLAQHERGSLASLDSLRKGGPPPPNWRQPELPEVIAMLGFRLDAVKSNAAAYLQHLCYRNDKVKTDVRKLKGIPVLVGLLDHPKKEVHLGACGALKNISFGRDQDNKIAIKNCDGVPALVRLLRKARDMDLTEVITGTLWNLSSHDSIKMEIVDHALHALTDEVIIPHSGWEREPNEDCKPRHIEWESVLTNTAGCLRNVSSERSEARRKLRECDGLVDALIFIVQAEIGQKDSDSKLVENCVCLLRNLSYQVHREIPQAERYQEAAPNVANNTGPHAASCFGAKKGKDEWFSRGKKPIEDPANDTVDFPKRTSPARGYELLFQPEVVRIYISLLKESKTPAILEASAGAIQNLCAGRWTYGRYIRSALRQEKALSAIADLLTNEHERVVKAASGALRNLAVDARNKELIGKHAIPNLVKNLPGGQQNSSWNFSEDTVISILNTINEVIAENLEAAKKLRETQGIEKLVLINKSGNRSEKEVRAAALVLQTIWGYKELRKPLEKEGWKKSDFQVNLNNASRSQSSHSYDDSTLPLIDRNQKSDKKPDREEIQMSNMGSNTKSLDNNYSTPNERGDHNRTLDRSGDLGDMEPLKGTTPLMQDEGQESLEEELDVLVLDDEGGQVSYPSMQKI
For B3, the binding [4] was “no binding”.
